Data taken from PubChem BioAssay AID588497 (NMMLSC, 2011).
Among all 360,000 compounds or so, about 780 (0.22%) were called active. Inconclusive results, whose numbers are uncertain, are shown with a selection of clear calls. Cut-off read from the data, not from the text of the source: active = inhibition above about 35% (passing the limit was not always enough); inconclusive = no clear call, values can overlap the other calls.

tested on: Botulinum neurotoxin type F light chain protease (Clostridium botulinum); assay: BoNT/F light chain protease inhibitors, primary screen, biochemical, flow cytometry, MLPCN library (AID 588497); details: Multiplex microsphere protease cleavage assay, at 10 µM, active compounds read high; note: plate controls were buffer without enzyme for full effect and enzyme alone for no effect

Row | SMILES | inhibition
1 | S=c1[nH]nc(-c2cc(-c3ccccc3)n[nH]2)n1/N=C/c1ccc(Br)s1 | inconclusive: 27.4%
2 | COC(=O)c1cnc(Oc2ccc(NC(=O)NC(=O)c3c(OC)cccc3OC)cc2)cc1C(F)(F)F | inconclusive: 56.1%
3 | Cc1ccc(/C(O)=C/C(=O)C(=O)NC23CC4CC(CC(C4)C2)C3)cc1 | inconclusive: -15.2%
4 | CC(C)c1ccc(NC(=S)N2CCCC(c3ccc(F)cc3)=N2)cc1 | inconclusive: 50.6%
5 | NS(=O)(=O)c1ccc(CCNC(=O)CC(c2ccccc2)c2ccccc2)cc1 | inconclusive: -19%
6 | CCCNC(=S)Nc1ccc(Br)cc1 | inconclusive: -13.2%
7 | O=[N+]([O-])c1ccc(N(CCO)Cc2ccccc2)c([N+](=O)[O-])c1 | inconclusive: -17.1%
8 | COc1ccc(NS(=O)(=O)c2cccc(C(=O)NNC(=O)CNC(=O)c3ccc(C)cc3)c2)cc1 | inactive: 6.3%
9 | COCc1nc2oc3ccc(F)cc3c(=O)c2cc1C(=O)OC | inconclusive: -12.9%
10 | Cc1ccc(C(=O)O)cc1S(=O)(=O)Nc1ccccc1C(=O)NC1CC1 | inactive: -14.3%
11 | C=CCN1C(=O)N(c2ccccc2)C(=O)C1CC(=O)Nc1ccc(OC)cc1 (stereo not drawn) | inconclusive: 37.4%
12 | O=C(Nc1ccc(OCC(F)(F)C(F)F)c(C(F)(F)F)c1)c1ccccc1O | inactive: -17.9%
13 | CCOC(=O)C[n+]1ccc2c([nH]c3ccccc32)c1C | inconclusive: -22.8%
14 | CC(=O)Nc1cccc(Nc2cnccn2)c1 | inactive: 2.2%
15 | O=C(Cn1c(=O)oc2ccccc21)N(Cc1ccccc1)C1CCS(=O)(=O)C1 (stereo not drawn) | inconclusive: -43%
16 | COc1ccc(CC(=O)Nc2nc(OCC(F)(F)F)cnc2-c2ccc(Cl)cc2Cl)cc1 | inactive: -15.3%
17 | Nc1nc(Nc2ccccc2)sc1C(=O)c1ccccc1 | inconclusive: -49.2%
18 | CN(C)CCOC(=O)/C(=C/c1cn(C)c2ccccc12)NC(=O)c1ccccc1 | inconclusive: 93.6%
19 | CCOc1ccc(N=c2oc3cc(O)ccc3cc2C(=O)NCC2CCCO2)cc1 (stereo not drawn) | inactive: 5.1%
20 | CC1CCN(S(=O)(=O)c2ccc([N+](=O)[O-])cc2)CC1 | inconclusive: 14.1%
21 | CCOC(=O)/C(C#N)=N\Nc1cc(Cl)ccc1OC | inactive: -7.9%
22 | COc1ccc(C(=O)NC2CC3CCCC(C2)N3Cc2ccccc2)cc1 (stereo not drawn) | inconclusive: -11.7%
23 | Cc1ccccc1OC(=O)c1cccnc1 | inconclusive: 14.8%
24 | O=S(=O)(c1ccccc1)N1CC2CC(Br)C(Br)CC21 (stereo not drawn) | inactive: -4.2%

An excerpt from above in order of SMILES length, rising:
Row | SMILES | inhibition
6 | CCCNC(=S)Nc1ccc(Br)cc1 | inconclusive: -13.2%
14 | CC(=O)Nc1cccc(Nc2cnccn2)c1 | inactive: 2.2%
24 | O=S(=O)(c1ccccc1)N1CC2CC(Br)C(Br)CC21 (stereo not drawn) | inactive: -4.2%
22 | COc1ccc(C(=O)NC2CC3CCCC(C2)N3Cc2ccccc2)cc1 (stereo not drawn) | inconclusive: -11.7%
5 | NS(=O)(=O)c1ccc(CCNC(=O)CC(c2ccccc2)c2ccccc2)cc1 | inconclusive: -19%
15 | O=C(Cn1c(=O)oc2ccccc21)N(Cc1ccccc1)C1CCS(=O)(=O)C1 (stereo not drawn) | inconclusive: -43%
1 | S=c1[nH]nc(-c2cc(-c3ccccc3)n[nH]2)n1/N=C/c1ccc(Br)s1 | inconclusive: 27.4%

Carrying on.

Row | SMILES | inhibition
25 | C=CCOc1ccc(C=CC(=O)c2c(O)c(OC)c(OC)c(OC)c2OC)cc1 | inactive: -5.4%
26 | Cc1ccc(-n2c(-c3cc(C)n(C)n3)n[nH]c2=S)cc1 | inconclusive: 25.6%
27 | Cc1ccc(CNCC(O)c2ccccc2)s1 (stereo not drawn) | inconclusive: -7%
28 | COc1ccccc1C(=O)NC(=O)CSc1nnnn1C | inactive: 8.2%
29 | COc1ccc(Nc2cc(C)nc(N)n2)cc1 | inconclusive: -2%
30 | Cc1cccc(COCC(Cc2ccccc2)N2CCN(C(=O)c3cccc(Cl)c3)CCC2=O)c1 (stereo not drawn) | inactive: 4.5%
31 | O=C(Nc1ccc(CCC(=O)N2CCCC2)cc1)c1ncn[nH]1 | inconclusive: 10.8%
32 | CCOc1ccc(C(=O)Nc2nnc(SCC(=O)NCC3CCCO3)s2)cc1 (stereo not drawn) | inactive: -7.8%
33 | COC(=O)c1ccccc1NC(=O)C1CC=CCC1C(=O)O (stereo not drawn) | inactive: 5%
34 | CC(=O)NC1=NN(C(C)=O)C(c2ccco2)S1 (stereo not drawn) | inconclusive: -144%
35 | COc1ccc(CCN=C(N)NS(=O)(=O)c2cc(F)ccc2F)cc1 | inactive: 11.5%
36 | Cc1ccc(C)c(OCCN2CCOCC2)c1 | inconclusive: 1.5%
37 | CCc1ccc(-c2n[nH]nc2C2=CC(=O)C[C@H](c3ccc(F)cc3)C2)cc1 | inactive: -5.8%
38 | COc1ccc(OC)c(C2=Nn3c(nnc3-c3cccc(OC(C)C)c3)SC2)c1 | inactive: -5.4%
39 | COc1ccc(-c2cc(C(=O)Nc3ccc(C)c(C)c3)no2)cc1 | inconclusive: 1.1%
40 | COc1ccc(S(=O)(=O)Nc2cc(C)on2)cc1OC | inconclusive: 12.6%
41 | Cc1nn(Cc2ccc(Cl)c(Cl)c2)c(C)c1NC(=O)c1cc(-c2ccc3c(c2)OCO3)on1 | inactive: 9.4%
42 | Cc1ccc(OCC(=O)N/N=C/c2cccn2C)cc1C | inconclusive: -60.9%
43 | Cc1ccsc1/C=N/NC(=O)CN1CCN(Cc2ccccc2)CC1 | inconclusive: -5.2%
44 | CCOC(=O)C1CCN(S(=O)(=O)c2ccc(-c3cc(C(F)(F)F)n(C)n3)s2)CC1 | inconclusive: -45.4%
45 | Cc1nnc(C)c2c(C)n(C(C)c3ccccc3)c(C)c12 (stereo not drawn) | inactive: -22.5%
46 | Cc1nn(-c2ccccc2)nc1CNC(=O)C1CC1 | inconclusive: -12.8%
47 | COc1ccc(/C=C/c2nnc(NC(=O)CC(C)C)s2)cc1 | inconclusive: 41.1%
48 | COc1cccc(CN(C)C[C@@H]2OCc3cnnn3CCCC(=O)N([C@@H](C)CO)C[C@H]2C)c1 | inactive: -3.6%

Row | SMILES | inhibition
49 | CCCn1nc(NC(C)=O)c2cc3cccc(C)c3nc21 | inconclusive: -33.7%
50 | C=CCn1c(SCCN2CCOCC2)nc2c1c(=O)[nH]c(=O)n2C | inactive: -8%
51 | C=CCn1cccc(C(=O)Nc2ccc(F)cc2)c1=O | inactive: -10.7%
52 | COC1=Nc2ccccc2N2CCN=C12 | inactive: 0.9%
53 | O=C(O)c1cc(-c2ccccc2)nc(-c2ccccc2)c1 | inactive: -8.1%
54 | CC(OC(=O)c1ncc(Cl)c(Cl)c1Cl)C(=O)NC1(C#N)CCCCC1 (stereo not drawn) | inconclusive: -5.1%
55 | COc1ccc(S(=O)(=O)N2CCCC(C(=O)NCc3cccnc3)C2)cc1C (stereo not drawn) | inactive: -3%
56 | COc1ccccc1CNC(=O)COC(=O)c1cnc(C)cn1 | inactive: -6.7%
57 | CCCS(=O)(=O)NC(=O)C1(C)CCN(C(=O)Cc2ccc(F)cc2)C1 (stereo not drawn) | inactive: -4.8%
58 | Cc1cccc(N(CC(=O)N2CCCCCC2)S(C)(=O)=O)c1C | active: 36.3%
59 | Oc1cncc(Cc2ccccc2)c1 | inconclusive: 32.2%
60 | O=C(Nc1cccc(Cl)c1)N1CCN(C2c3ccccc3-c3ccccc32)CC1 | inconclusive: 112%
61 | CCN(CC(=O)NCc1cccs1)S(=O)(=O)c1ccc(F)c(F)c1F | inactive: 4.5%
62 | Cc1ccc(NC(=O)CCN2CCC(C(N)=O)CC2)cc1 | inconclusive: 13%
63 | O=C(Oc1cc(Cl)cc(Cl)c1)c1cnc2n(c1=O)CCS2 | inconclusive: -15.9%
64 | C=C(C)CSc1cc(C)nc2c(-c3ccccc3)c(C)nn12 | inconclusive: -10.4%
65 | CCOC(=O)c1cc2sccc2n1CC(=O)c1ccc2c(c1)OCCO2 | inconclusive: -141%
66 | CCc1nnc(NC(=O)CSc2nnc(CNc3cccc(C)c3)n2-c2ccccc2)s1 | inactive: 2.7%
67 | Nc1cc2c(cc1Cl)-c1ccc([N+](=O)[O-])cc1C2=NO | inconclusive: -3.9%
68 | Cc1cccn2c(=O)c(C=Nc3ccccc3)c(NCCO)nc12 | inactive: -2.1%
69 | Cc1ccc(OC(=O)c2c(C)nn(-c3ccccc3)c2C)cc1 | inconclusive: 17.4%
70 | CC(C)(C)c1ccc(C(=O)NNc2ncccc2-n2cccc2)cc1 | inconclusive: -12.3%
71 | OC(COc1ccc2ccccc2c1)Cn1cncn1 (stereo not drawn) | inconclusive: 5.7%
72 | S=C(Nc1ccccc1)N1CCCN1c1ccccc1 | inconclusive: -2.7%

Row | SMILES | inhibition
73 | O=C(NCC1CCCCC1)c1cccnc1 | inconclusive: 1.2%
74 | O=C(NCC1CCCO1)c1ccc(NC(=O)C2CCCCC2C(=O)O)cc1 (stereo not drawn) | inconclusive: -39.3%
75 | Cc1ccc(C)c(Nc2nc3ccccc3n3cnnc23)c1 | inconclusive: -10.1%
76 | Cc1cc(C)c(NC(=O)CN(C)C(=O)C2CC(=O)N(c3cccc4ccccc34)C2)c(C)c1 (stereo not drawn) | inactive: -4.5%
77 | CCc1ccc(NC(=O)C2C3CCC(O3)C2C(=O)O)cc1 (stereo not drawn) | inconclusive: 42.6%
78 | Cc1cc(Oc2ccc(Cl)cc2)nc(-c2ccccn2)n1 | inconclusive: 8.1%
79 | O=C(COc1ccc(Cl)cc1)N(Cc1ccccc1)c1nc(-c2ccccc2)cs1 | inactive: -19.3%
80 | Cc1ccc(C(=O)N/C(=C\c2ccco2)C(=O)NCCN2CCOCC2)cc1C | inconclusive: -7.9%
81 | CC(=O)NCCc1c[nH]c2ccc(OCC(O)CNC(C)(C)C)cc12 (stereo not drawn) | inconclusive: 31.1%
82 | CCOc1ccc(-c2csc3nc[nH]c(=O)c23)cc1 | inconclusive: -4.8%
83 | Cc1cc(-c2ccccc2)nc2cc(C(=O)OC(C)C)nn12 | inconclusive: -4%
84 | C=CCOc1ccc2ccccc2c1CNn1cn[nH]c1=S | inconclusive: 30.1%
85 | CCc1nc2ccccc2c(NC(=O)CN2CCC(C)CC2)c1C | inconclusive: -17.7%
86 | COc1cc2c(cc1OC)CN(C(=O)c1cccs1)CC2 | inconclusive: -10%
87 | COc1ccccc1C(=O)N/N=C1/NC(=O)CC(C(=O)Nc2ccccc2)S1 (stereo not drawn) | inconclusive: 63.2%
88 | Cc1ccccc1N1CCN(S(=O)(=O)CC23CCC(CC2=O)C3(C)C)CC1 (stereo not drawn) | inconclusive: 2.3%
89 | NC(=S)N/N=C/c1ccc(-c2ccc(SC(F)F)cc2)o1 | inconclusive: -16.5%
90 | O=C1COC(c2ccccc2O)=NN1CCCl | inactive: 3.5%
91 | CC(=O)Nc1ccc(S(=O)(=O)N2CCN(CCc3ccccc3)CC2)cc1 | inconclusive: 18.4%
92 | O=c1[nH]c2cc3c(cc2cc1CN(CCCO)Cc1nnnn1Cc1ccc(F)cc1)OCO3 | inactive: -1.1%
93 | CCOC(=O)C1CCN(CCC(=O)Nc2ccc(Br)cc2)CC1 | inconclusive: -26.4%
